{
  "sequences": {"note": "Protein sequences, listed by entry. Tags and fused reporters are not part of them. Residues count along the entry.", "UniProt P70207, residues 35-1894": "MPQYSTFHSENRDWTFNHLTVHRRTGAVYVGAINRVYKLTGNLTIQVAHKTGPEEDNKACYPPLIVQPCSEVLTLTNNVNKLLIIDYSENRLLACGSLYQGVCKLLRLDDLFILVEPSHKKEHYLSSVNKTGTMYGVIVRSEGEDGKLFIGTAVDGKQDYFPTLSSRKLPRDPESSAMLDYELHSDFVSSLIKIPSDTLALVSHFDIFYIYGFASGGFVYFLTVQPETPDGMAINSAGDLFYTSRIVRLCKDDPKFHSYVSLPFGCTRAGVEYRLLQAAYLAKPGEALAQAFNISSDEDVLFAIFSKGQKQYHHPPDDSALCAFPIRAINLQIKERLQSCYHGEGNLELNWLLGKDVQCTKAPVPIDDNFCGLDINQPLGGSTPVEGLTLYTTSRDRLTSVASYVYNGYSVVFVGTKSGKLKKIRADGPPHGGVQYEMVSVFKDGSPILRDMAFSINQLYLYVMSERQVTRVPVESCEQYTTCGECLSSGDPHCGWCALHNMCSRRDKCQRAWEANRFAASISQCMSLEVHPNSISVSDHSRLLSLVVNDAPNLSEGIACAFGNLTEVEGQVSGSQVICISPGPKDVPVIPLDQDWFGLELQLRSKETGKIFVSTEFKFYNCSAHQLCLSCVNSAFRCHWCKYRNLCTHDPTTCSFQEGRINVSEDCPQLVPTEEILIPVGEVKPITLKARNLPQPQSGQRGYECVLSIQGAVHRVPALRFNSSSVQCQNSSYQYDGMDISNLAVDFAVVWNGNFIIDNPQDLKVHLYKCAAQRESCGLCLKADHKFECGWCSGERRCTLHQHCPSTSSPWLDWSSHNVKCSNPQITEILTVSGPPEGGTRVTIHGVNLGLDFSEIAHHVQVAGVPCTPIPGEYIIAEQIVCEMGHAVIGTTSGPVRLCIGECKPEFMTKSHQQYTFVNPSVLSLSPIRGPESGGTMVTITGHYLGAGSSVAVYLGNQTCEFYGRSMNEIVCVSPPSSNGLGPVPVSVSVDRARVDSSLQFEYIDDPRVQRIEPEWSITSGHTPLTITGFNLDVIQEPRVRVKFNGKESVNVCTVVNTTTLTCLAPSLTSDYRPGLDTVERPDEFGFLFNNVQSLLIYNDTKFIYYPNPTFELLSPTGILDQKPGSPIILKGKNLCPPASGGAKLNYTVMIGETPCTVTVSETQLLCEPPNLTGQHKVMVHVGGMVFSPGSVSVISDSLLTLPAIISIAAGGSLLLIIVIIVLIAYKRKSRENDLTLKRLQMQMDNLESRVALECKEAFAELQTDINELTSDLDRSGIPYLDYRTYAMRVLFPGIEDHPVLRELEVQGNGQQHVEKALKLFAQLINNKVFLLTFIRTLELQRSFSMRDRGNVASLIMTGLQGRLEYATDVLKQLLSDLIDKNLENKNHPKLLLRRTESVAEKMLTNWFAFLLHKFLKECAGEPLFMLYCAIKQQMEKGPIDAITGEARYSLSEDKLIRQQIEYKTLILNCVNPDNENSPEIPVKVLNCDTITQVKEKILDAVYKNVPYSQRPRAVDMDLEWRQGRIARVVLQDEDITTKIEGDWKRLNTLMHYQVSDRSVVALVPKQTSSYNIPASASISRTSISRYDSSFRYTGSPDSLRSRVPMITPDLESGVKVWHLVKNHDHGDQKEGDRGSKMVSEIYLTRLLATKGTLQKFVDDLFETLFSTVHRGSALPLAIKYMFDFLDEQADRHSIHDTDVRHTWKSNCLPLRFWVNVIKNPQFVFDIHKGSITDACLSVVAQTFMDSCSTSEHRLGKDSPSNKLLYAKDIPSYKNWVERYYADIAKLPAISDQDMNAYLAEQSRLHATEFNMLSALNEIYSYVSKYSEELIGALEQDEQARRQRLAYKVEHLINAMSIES", "UniProt P70206, residues 28-1894": "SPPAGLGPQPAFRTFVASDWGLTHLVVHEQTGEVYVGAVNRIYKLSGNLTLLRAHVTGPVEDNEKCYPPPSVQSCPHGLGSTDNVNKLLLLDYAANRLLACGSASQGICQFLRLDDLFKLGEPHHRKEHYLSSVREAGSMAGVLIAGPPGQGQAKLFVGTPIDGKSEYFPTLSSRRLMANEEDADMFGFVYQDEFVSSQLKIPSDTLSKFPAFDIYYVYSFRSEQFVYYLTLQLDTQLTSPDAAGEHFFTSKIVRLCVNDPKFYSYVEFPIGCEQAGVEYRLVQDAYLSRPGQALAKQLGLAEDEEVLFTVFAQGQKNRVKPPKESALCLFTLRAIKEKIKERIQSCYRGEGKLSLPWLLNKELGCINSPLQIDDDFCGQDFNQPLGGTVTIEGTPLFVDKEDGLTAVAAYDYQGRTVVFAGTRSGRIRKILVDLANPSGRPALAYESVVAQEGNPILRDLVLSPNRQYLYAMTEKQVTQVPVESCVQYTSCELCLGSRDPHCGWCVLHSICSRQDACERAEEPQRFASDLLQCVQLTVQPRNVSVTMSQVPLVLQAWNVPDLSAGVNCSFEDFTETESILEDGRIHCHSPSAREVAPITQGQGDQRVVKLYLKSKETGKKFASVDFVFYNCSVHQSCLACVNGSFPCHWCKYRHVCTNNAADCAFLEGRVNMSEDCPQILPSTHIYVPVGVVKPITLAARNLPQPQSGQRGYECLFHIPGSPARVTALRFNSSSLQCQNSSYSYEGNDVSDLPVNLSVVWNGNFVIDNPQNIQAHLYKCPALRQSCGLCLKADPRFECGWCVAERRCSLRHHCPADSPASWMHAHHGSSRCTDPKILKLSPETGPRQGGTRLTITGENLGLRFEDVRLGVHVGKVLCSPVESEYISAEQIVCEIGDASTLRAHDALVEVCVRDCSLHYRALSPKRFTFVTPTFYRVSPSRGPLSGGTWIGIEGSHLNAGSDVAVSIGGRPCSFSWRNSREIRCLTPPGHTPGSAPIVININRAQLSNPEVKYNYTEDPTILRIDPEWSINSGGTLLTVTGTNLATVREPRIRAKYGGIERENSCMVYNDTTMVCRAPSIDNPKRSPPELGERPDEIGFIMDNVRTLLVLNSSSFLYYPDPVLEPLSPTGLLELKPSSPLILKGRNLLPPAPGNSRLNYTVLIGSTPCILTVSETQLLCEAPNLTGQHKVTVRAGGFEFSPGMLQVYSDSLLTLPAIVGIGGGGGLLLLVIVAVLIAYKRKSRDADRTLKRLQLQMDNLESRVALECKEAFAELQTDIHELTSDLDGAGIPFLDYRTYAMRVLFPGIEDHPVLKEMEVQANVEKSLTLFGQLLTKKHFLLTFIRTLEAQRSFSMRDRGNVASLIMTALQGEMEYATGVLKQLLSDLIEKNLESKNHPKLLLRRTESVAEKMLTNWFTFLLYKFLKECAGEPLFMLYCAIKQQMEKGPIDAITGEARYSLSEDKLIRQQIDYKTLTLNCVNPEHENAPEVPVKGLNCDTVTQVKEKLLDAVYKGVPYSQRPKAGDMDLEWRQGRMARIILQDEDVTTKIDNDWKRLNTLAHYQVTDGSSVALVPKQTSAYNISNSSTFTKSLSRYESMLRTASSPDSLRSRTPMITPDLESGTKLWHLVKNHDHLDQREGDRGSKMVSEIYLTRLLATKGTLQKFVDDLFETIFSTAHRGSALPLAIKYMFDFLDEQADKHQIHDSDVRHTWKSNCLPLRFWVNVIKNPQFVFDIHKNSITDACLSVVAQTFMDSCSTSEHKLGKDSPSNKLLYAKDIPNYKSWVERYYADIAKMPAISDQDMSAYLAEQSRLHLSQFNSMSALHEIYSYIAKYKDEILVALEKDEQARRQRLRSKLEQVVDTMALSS"},
  "source": "paper PMC4236683",
  "key": {"Sema6A": {"molecular_target": "T1, Sema6A (UniProt O35464)", "T1 sequence": "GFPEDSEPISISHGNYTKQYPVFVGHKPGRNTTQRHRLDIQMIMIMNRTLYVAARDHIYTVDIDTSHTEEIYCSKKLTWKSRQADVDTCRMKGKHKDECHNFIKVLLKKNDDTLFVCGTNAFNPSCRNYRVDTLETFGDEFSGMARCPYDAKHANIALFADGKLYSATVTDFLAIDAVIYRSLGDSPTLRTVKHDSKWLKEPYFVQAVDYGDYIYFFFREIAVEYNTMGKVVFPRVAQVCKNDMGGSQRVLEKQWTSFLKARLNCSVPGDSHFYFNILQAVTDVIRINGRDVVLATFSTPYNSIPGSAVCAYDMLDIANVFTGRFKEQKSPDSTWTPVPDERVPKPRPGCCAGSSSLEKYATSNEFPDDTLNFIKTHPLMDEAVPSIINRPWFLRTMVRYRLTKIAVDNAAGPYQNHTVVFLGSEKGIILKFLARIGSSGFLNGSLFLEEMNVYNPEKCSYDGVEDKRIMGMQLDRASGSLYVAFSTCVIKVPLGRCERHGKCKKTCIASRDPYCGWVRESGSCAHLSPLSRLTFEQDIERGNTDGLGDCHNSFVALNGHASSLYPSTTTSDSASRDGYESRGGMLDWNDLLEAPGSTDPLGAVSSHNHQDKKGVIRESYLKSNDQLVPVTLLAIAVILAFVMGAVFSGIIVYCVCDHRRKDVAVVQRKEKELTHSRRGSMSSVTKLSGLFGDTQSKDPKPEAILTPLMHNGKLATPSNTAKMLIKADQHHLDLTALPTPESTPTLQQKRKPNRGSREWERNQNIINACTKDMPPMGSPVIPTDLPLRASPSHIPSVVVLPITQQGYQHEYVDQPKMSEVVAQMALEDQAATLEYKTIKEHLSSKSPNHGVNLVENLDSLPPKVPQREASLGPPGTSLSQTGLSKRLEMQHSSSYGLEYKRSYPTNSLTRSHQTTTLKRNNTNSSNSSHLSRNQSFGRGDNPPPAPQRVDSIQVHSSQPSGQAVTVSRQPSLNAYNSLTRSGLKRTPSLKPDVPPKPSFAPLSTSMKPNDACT", "test": "binding of AP-clustered Fc fusion protein to transfected cells; COS7 cells transfected with PlexA or semaphorin constructs, incubated 75 min in OptiMEM with Fc fusion protein preclustered with anti-human IgG conjugated to alkaline phosphatase; rinsed, fixed, developed with NBT/BCIP; only the binder purified"}, "[1]": {"molecular_target": "T2, 6xMyc N-terminal-tagged full-length (FL)-Sema5A (rat) (UniProt D3ZTD8)", "T2 sequence": "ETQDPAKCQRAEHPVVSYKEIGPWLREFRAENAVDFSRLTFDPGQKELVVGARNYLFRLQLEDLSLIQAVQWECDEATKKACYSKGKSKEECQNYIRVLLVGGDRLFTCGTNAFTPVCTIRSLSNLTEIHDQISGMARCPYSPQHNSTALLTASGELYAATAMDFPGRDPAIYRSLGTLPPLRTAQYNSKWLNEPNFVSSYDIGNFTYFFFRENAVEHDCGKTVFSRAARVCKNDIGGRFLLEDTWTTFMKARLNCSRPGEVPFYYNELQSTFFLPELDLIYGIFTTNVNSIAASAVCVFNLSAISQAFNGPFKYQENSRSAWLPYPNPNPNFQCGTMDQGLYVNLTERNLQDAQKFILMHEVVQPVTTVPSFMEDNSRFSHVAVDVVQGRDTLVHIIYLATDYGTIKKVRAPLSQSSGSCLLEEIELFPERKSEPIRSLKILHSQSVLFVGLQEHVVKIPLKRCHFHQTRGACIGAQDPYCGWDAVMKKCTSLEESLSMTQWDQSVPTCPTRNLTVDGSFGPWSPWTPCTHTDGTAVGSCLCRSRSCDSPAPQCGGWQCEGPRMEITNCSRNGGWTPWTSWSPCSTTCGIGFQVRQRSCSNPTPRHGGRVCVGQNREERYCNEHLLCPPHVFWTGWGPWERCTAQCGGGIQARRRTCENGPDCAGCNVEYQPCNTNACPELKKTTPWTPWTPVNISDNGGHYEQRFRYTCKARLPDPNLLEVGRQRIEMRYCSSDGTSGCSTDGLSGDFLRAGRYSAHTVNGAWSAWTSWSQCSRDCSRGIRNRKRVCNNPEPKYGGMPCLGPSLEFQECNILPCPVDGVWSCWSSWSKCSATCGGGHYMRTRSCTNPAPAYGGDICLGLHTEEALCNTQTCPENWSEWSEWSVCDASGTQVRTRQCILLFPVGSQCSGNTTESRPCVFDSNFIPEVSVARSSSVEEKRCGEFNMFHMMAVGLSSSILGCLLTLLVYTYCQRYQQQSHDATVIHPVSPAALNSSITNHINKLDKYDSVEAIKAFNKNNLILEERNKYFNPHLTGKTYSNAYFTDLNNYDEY", "test": "binding of AP-clustered Fc fusion protein to transfected cells; COS7 cells transfected with PlexA or semaphorin constructs, incubated 75 min in OptiMEM with Fc fusion protein preclustered with anti-human IgG conjugated to alkaline phosphatase; rinsed, fixed, developed with NBT/BCIP; only the binder purified"}, "[2]": {"molecular_target": "T3, membrane-bound Sema5A lacking the seven TSRs (6xMyc-Sema5A^ΔTSR) (rat) (UniProt D3ZTD8)", "T3 sequence": "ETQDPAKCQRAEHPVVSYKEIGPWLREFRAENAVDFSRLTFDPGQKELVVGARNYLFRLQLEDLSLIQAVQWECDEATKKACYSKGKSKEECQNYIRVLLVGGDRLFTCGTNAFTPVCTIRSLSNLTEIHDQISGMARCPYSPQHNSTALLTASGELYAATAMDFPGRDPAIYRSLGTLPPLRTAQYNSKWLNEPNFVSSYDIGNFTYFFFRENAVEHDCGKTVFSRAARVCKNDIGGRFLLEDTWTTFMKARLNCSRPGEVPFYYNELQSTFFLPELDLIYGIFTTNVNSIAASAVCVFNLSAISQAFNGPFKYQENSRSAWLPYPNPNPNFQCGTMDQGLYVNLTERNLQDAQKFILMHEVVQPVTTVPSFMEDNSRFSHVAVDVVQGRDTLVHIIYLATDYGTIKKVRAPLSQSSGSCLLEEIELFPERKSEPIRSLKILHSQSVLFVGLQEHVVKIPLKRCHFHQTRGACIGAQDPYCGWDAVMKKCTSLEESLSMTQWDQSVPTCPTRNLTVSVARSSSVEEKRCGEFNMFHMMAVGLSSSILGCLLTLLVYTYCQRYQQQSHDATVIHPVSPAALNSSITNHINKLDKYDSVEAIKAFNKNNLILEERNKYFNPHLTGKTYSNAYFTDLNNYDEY", "test": "binding of AP-clustered Fc fusion protein to transfected cells; COS7 cells transfected with PlexA or semaphorin constructs, incubated 75 min in OptiMEM with Fc fusion protein preclustered with anti-human IgG conjugated to alkaline phosphatase; rinsed, fixed, developed with NBT/BCIP; only the binder purified"}, "[3]": {"molecular_target": "full-length PlexA2 with an N-terminal 6xMyc tag (mouse) (UniProt P70207)", "test": "cis competition on co-transfected cells; membrane-bound Sema5A constructs co-expressed with PlexA2 in the same COS7 cells; read out as loss of binding of bath applied Sema5A-Fc"}, "[4]": {"molecular_target": "full-length PlexA1 with an N-terminal 6xMyc tag (mouse) (UniProt P70206)", "test": "binding of AP-clustered Fc fusion protein to transfected cells; COS7 cells transfected with PlexA or semaphorin constructs, incubated 75 min in OptiMEM with Fc fusion protein preclustered with anti-human IgG conjugated to alkaline phosphatase; rinsed, fixed, developed with NBT/BCIP; only the binder purified"}, "[5]": {"molecular_target": "full-length PlexA2 with an N-terminal 6xMyc tag (mouse) (UniProt P70207)", "test": "binding of AP-clustered Fc fusion protein to transfected cells; COS7 cells transfected with PlexA or semaphorin constructs, incubated 75 min in OptiMEM with Fc fusion protein preclustered with anti-human IgG conjugated to alkaline phosphatase; rinsed, fixed, developed with NBT/BCIP; only the binder purified"}},
  "note": "These are yes or no findings as the source states them, for the method shown. Some binding calls cover weakened binding; strength is not graded here. Sequences can lack the tags named with a protein.",
  "data": [
    {"binder": "sema domain of PlexA4 fused to Fc (PlexA4^SD-Fc) (Fc fusion, UniProt Q80UG2 24-506) TLLPRQPPQLSQKPSFVTFRGEPAEGFNHLVVDERTGHIYLGAVNRIYKLSSDLKVLVTHQTGPDEDNPKCYPPRIVQTCNEPLASTNNVNKMLLIDYKENRLIACGSLYQGICKLLRLEDLFKLGEPFHKKEHYLSGVNESGSVFGVIVSYSNFDDKLFIATAVDGKPEYFPTISSRKLTKNSEADGMFAYVFHDEFVASMIKIPSDTFTVIPDFDIYYVYGFSSGNFVYFLTLQPEMVSPPGSTTKEQVYTSKLVRLCKEDTAFNSYVEVPIGCERNGVEYRLLQAAYLSKAGAVLGRTLGVRPDDDLLFTVFSKGQKRKMKSLDESALCIFILKQINDRIKDRLQSCYRGEGTLDLAWLKVKDIPCSSALLTIDDNFCGLDMNAPLGVSEMVRGIPVFTEDRDRMTSVIAYVYKNHSLAFVGTKSGKLKKIRVDGPKGNALQYETVQVVDSGPVLRDMAFSKDHEQLYIMSERQLTRVPV", "values": [
      {"measurement": "binding", "setting": "Sema6A", "result": "binds"},
      {"measurement": "binding", "setting": "[1]", "result": "no binding"},
      {"measurement": "binding", "setting": "[2]", "result": "no binding"}
    ]},
    {"binder": "membrane-bound Sema5A lacking the seven TSRs (6xMyc-Sema5A^ΔTSR) (ligand, UniProt D3ZTD8 23-539; D3ZTD8 951-1074) ETQDPAKCQRAEHPVVSYKEIGPWLREFRAENAVDFSRLTFDPGQKELVVGARNYLFRLQLEDLSLIQAVQWECDEATKKACYSKGKSKEECQNYIRVLLVGGDRLFTCGTNAFTPVCTIRSLSNLTEIHDQISGMARCPYSPQHNSTALLTASGELYAATAMDFPGRDPAIYRSLGTLPPLRTAQYNSKWLNEPNFVSSYDIGNFTYFFFRENAVEHDCGKTVFSRAARVCKNDIGGRFLLEDTWTTFMKARLNCSRPGEVPFYYNELQSTFFLPELDLIYGIFTTNVNSIAASAVCVFNLSAISQAFNGPFKYQENSRSAWLPYPNPNPNFQCGTMDQGLYVNLTERNLQDAQKFILMHEVVQPVTTVPSFMEDNSRFSHVAVDVVQGRDTLVHIIYLATDYGTIKKVRAPLSQSSGSCLLEEIELFPERKSEPIRSLKILHSQSVLFVGLQEHVVKIPLKRCHFHQTRGACIGAQDPYCGWDAVMKKCTSLEESLSMTQWDQSVPTCPTRNLTVSVARSSSVEEKRCGEFNMFHMMAVGLSSSILGCLLTLLVYTYCQRYQQQSHDATVIHPVSPAALNSSITNHINKLDKYDSVEAIKAFNKNNLILEERNKYFNPHLTGKTYSNAYFTDLNNYDEY", "values": [
      {"measurement": "binding", "setting": "[3]", "result": "binds"}
    ]},
    {"binder": "Sema5A^Sema-Fc (sema domain of Sema5A fused to Fc) (Fc fusion, UniProt D3ZTD8 23-539) ETQDPAKCQRAEHPVVSYKEIGPWLREFRAENAVDFSRLTFDPGQKELVVGARNYLFRLQLEDLSLIQAVQWECDEATKKACYSKGKSKEECQNYIRVLLVGGDRLFTCGTNAFTPVCTIRSLSNLTEIHDQISGMARCPYSPQHNSTALLTASGELYAATAMDFPGRDPAIYRSLGTLPPLRTAQYNSKWLNEPNFVSSYDIGNFTYFFFRENAVEHDCGKTVFSRAARVCKNDIGGRFLLEDTWTTFMKARLNCSRPGEVPFYYNELQSTFFLPELDLIYGIFTTNVNSIAASAVCVFNLSAISQAFNGPFKYQENSRSAWLPYPNPNPNFQCGTMDQGLYVNLTERNLQDAQKFILMHEVVQPVTTVPSFMEDNSRFSHVAVDVVQGRDTLVHIIYLATDYGTIKKVRAPLSQSSGSCLLEEIELFPERKSEPIRSLKILHSQSVLFVGLQEHVVKIPLKRCHFHQTRGACIGAQDPYCGWDAVMKKCTSLEESLSMTQWDQSVPTCPTRNLTV", "values": [
      {"measurement": "binding", "setting": "[4]", "result": "binds"},
      {"measurement": "binding", "setting": "[5]", "result": "binds"}
    ]}
  ]
}
